Source: publication PMC7884418
Like-named read-outs stand apart in the source and are kept apart here. Results are given in words; binding and its absence hold for the method and conditions named. Binding seen in cells or lysates may run through a third protein. These calls come from enrichment with a bait or labelling near it, and not all partners need be listed.

Amino acid sequences for entries named in this document (tags omitted).
UniProt Q16763: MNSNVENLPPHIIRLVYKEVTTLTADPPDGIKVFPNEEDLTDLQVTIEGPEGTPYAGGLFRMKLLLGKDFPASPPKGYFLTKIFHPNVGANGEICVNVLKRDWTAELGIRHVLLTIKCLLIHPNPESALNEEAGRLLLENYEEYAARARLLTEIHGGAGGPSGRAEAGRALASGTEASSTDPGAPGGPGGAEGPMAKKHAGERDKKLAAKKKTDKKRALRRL
UniProt P07355: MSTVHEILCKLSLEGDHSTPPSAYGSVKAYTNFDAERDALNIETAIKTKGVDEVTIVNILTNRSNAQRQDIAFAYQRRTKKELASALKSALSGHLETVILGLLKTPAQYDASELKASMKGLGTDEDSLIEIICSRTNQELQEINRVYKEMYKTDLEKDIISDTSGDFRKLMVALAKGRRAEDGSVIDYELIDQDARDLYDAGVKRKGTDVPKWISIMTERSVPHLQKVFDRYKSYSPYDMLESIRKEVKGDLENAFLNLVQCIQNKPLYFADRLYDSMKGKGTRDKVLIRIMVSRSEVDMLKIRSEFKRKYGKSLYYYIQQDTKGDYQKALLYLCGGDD
UniProt Q13263: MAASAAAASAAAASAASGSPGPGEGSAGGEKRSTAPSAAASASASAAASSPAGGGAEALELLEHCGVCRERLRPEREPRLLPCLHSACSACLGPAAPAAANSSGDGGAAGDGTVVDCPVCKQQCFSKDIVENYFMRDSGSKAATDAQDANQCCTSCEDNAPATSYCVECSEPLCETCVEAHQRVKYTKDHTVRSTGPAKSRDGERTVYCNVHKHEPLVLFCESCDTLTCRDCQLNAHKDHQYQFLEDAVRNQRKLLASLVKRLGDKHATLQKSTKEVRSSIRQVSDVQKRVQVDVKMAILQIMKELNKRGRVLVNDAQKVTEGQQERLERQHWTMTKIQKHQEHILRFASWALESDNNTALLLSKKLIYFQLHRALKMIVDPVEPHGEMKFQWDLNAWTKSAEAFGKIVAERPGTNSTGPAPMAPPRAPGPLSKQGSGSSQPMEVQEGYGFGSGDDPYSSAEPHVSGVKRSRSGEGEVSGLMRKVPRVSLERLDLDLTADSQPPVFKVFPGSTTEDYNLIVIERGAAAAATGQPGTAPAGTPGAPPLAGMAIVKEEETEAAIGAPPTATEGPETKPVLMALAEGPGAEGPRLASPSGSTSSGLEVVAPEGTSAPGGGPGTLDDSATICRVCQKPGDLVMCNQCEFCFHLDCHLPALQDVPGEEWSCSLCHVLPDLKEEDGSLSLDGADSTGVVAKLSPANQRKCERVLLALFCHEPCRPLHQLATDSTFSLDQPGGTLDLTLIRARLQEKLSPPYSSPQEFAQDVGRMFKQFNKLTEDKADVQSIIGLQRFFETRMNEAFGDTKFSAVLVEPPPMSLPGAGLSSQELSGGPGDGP

Assays:
[1] = molecular target: UBE2S (human (endogenous in Huh-7 and MHCC-97H)) (UniProt Q16763); experiment: affinity purification with mass spectrometry; co-immunoprecipitation of UBE2S-interacting complexes from nuclear extracts of Huh-7 cells, mass spectrometry
[2] = molecular target: UBE2S (human (endogenous in Huh-7 and MHCC-97H)) (UniProt Q16763); experiment: as above; remark: listed apart in the source

Molecule	binding [1]	binding [2]
ANAX2 (from UniProt P07355 1-339)	binds	
Tripartite motif-containing 28 (TRIM28) (from UniProt Q13263 1-835)	binds	
ILF3 (protein, UniProt Q12906 1-894) MRPMRIFVNDDRHVMAKHSSVYPTQEELEAVQNMVSHTERALKAVSDWIDEQEKGSSEQAESDNMDVPPEDDSKEGAGEQKTEHMTRTLRGVMRVGLVAKGLLLKGDLDLELVLLCKEKPTTALLDKVADNLAIQLAAVTEDKYEILQSVDDAAIVIKNTKEPPLSLTIHLTSPVVREEMEKVLAGETLSVNDPPDVLDRQKCLAALASLRHAKWFQARANGLKSCVIVIRVLRDLCTRVPTWGPLRGWPLELLCEKSIGTANRPMGAGEALRRVLECLASGIVMPDGSGIYDPCEKEATDAIGHLDRQQREDITQSAQHALRLAAFGQLHKVLGMDPLPSKMPKKPKNENPVDYTVQIPPSTTYAITPMKRPMEEDGEEKSPSKKKKKIQKKEEKAEPPQAMNALMRLNQLKPGLQYKLVSQTGPVHAPIFTMSVEVDGNSFEASGPSKKTAKLHVAVKVLQDMGLPTGAEGRDSSKGEDSAEETEAKPAVVAPAPVVEAVSTPSAAFPSDATAEQGPILTKHGKNPVMELNEKRRGLKYELISETGGSHDKRFVMEVEVDGQKFQGAGSNKKVAKAYAALAALEKLFPDTPLALDANKKKRAPVPVRGGPKFAAKPHNPGFGMGGPMHNEVPPPPNLRGRGRGGSIRGRGRGRGFGGANHGGYMNAGAGYGSYGYGGNSATAGYSQFYSNGGHSGNASGGGGGGGGGSSGYGSYYQGDNYNSPVPPKHAGKKQPHGGQQKPSYGSGYQSHQGQQQSYNQSPYSNYGPPQGKQKGYNHGQGSYSYSNSYNSPGGGGGSDYNYESKFNYSGSGGRSGGNSYGSGGASYNPGSHGGYGGGSGGGSSYQGKQGGYSQSNYNSPGSGQNYSGPPSSYQSSQGGYGRNADHSMNYQYR		binds
